Laboratory results: PubChem BioAssay AID743121 (NCATS, 2013)
Purpose: 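Partners whose loss is lethal together with topoisomerase I blockade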 (primary screen). Cells: MDA-MB-231 cells, a human breast cancer line. Knock-down reagent: single siRNA against human genes, 20 nM siRNA (0.8 pmol per well). Time to read-out: 120 h (drug added 48 h after transfection, read 72 h later). Treatment: camptothecin 20 nM (about EC30) for 72 h; vehicle 0.1% DMSO in parallel plates. Measured: 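Cell viability by ATP luminescence (CellTiter-Glo) as % of non-targeting siRNA wells, and the log2 ratio of viability without drug over viability with camptothecin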. Scale: log2 vehicle/camptothecin viability: higher = stronger sensitisation to camptothecin; viability with camptothecin and viability without drug: higher = more viable cells. Call rule: 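Active genes have an RSA gene-level p-value below 0.001, computed from the ratios of their separate siRNAs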.
The deposit covers about 26,000 reagents; below is an unselected part. Of all reagents, 167 (0.63%) were called active. 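Calls are per gene from RSA p-values that are not deposited; an individual active-marked siRNA can sensitise only weakly.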 Entries without a mark were called inactive. Reagents against one gene are numbered here.

Target gene | reagent | log2 vehicle/camptothecin viability | viability with camptothecin (% of control) | viability without drug (% of control)
DEF6 (DEF6 guanine nucleotide exchange factor) | 1 | 0.433 | 81.3 | 110
DEF6 (DEF6 guanine nucleotide exchange factor) | 2 | -0.141 | 104 | 94.5
DEF6 (DEF6 guanine nucleotide exchange factor) | 3 | -0.233 | 44.2 | 37.6
DEF6 (DEF6 guanine nucleotide exchange factor) | 4 | 0.115 | 31.8 | 34.5
SLC25A19 | 1 | -0.311 | 79.3 | 63.9
SLC25A19 | 2 | -0.275 | 39.1 | 32.3
SLC25A19 | 3 | -0.384 | 103 | 79.3
SLC25A19 | 4 | -0.547 | 82.2 | 56.2
ELAC2 (elaC ribonuclease Z 2) | 1 | -0.173 | 59.5 | 52.8
ELAC2 (elaC ribonuclease Z 2) | 2 | -0.141 | 42.4 | 38.4
ELAC2 (elaC ribonuclease Z 2) | 3 | -0.581 | 87.8 | 58.7
ELAC2 (elaC ribonuclease Z 2) | 4 | -0.614 | 81.4 | 53.2
MAP2 (microtubule associated protein 2) | 1 | -0.442 | 74.8 | 55.1
MAP2 (microtubule associated protein 2) | 2 | 0.0208 | 75.5 | 76.6
MAP2 (microtubule associated protein 2) | 3 | -0.294 | 98.8 | 80.6
MAP2 (microtubule associated protein 2) | 4 | 0.0943 | 88.7 | 94.7
HELZ2 (helicase with zinc finger 2) | 1 | 0.212 | 69.9 | 80.9
HELZ2 (helicase with zinc finger 2) | 2 | -0.236 | 115 | 97.6
HELZ2 (helicase with zinc finger 2) | 3 | -0.575 | 93.6 | 62.8
HELZ2 (helicase with zinc finger 2) | 4 | -0.219 | 112 | 95.9
RAB9B (RAB9B, member RAS oncogene family) | 1 | -0.255 | 123 | 103
RAB9B (RAB9B, member RAS oncogene family) | 2 | 0.17 | 85.5 | 96.1
RAB9B (RAB9B, member RAS oncogene family) | 3 | -0.238 | 58.2 | 49.3
RAB9B (RAB9B, member RAS oncogene family) | 4 | -0.142 | 93.8 | 85.1
GRIN1 (glutamate ionotropic receptor NMDA type subunit 1) | 1 | 0.116 | 89.4 | 96.9
GRIN1 (glutamate ionotropic receptor NMDA type subunit 1) | 2 | 0.284 | 54.1 | 65.8
GRIN1 (glutamate ionotropic receptor NMDA type subunit 1) | 3 | -0.459 | 75.4 | 54.9

10 entries from above, ordered by “viability with camptothecin (% of control)”, lowest first:
Target gene | reagent | log2 vehicle/camptothecin viability | viability with camptothecin (% of control) | viability without drug (% of control)
HELZ2 (helicase with zinc finger 2) | 1 | 0.212 | 69.9 | 80.9
MAP2 (microtubule associated protein 2) | 1 | -0.442 | 74.8 | 55.1
MAP2 (microtubule associated protein 2) | 2 | 0.0208 | 75.5 | 76.6
ELAC2 (elaC ribonuclease Z 2) | 4 | -0.614 | 81.4 | 53.2
ELAC2 (elaC ribonuclease Z 2) | 3 | -0.581 | 87.8 | 58.7
MAP2 (microtubule associated protein 2) | 4 | 0.0943 | 88.7 | 94.7
HELZ2 (helicase with zinc finger 2) | 3 | -0.575 | 93.6 | 62.8
MAP2 (microtubule associated protein 2) | 3 | -0.294 | 98.8 | 80.6
HELZ2 (helicase with zinc finger 2) | 4 | -0.219 | 112 | 95.9
HELZ2 (helicase with zinc finger 2) | 2 | -0.236 | 115 | 97.6

Additional entries follow.
Target gene | reagent | log2 vehicle/camptothecin viability | viability with camptothecin (% of control) | viability without drug (% of control)
XPO1 (exportin 1) | 1 | -0.0121 | 83.5 | 82.8
XPO1 (exportin 1) | 2 | 0.901 | 11.3 | 21
XPO1 (exportin 1) | 3 | -0.308 | 39.9 | 32.2
BCLAF3 (BCLAF1 and THRAP3 family member 3) | 1 | -0.0995 | 99.2 | 92.5
BCLAF3 (BCLAF1 and THRAP3 family member 3) | 2 | -0.622 | 80.7 | 52.4
BCLAF3 (BCLAF1 and THRAP3 family member 3) | 3 | 0.0379 | 99.3 | 102
BCLAF3 (BCLAF1 and THRAP3 family member 3) | 4 | -0.1 | 95.3 | 88.9
TULP3 (TUB like protein 3) | 1 | 0.119 | 84.3 | 91.5
TULP3 (TUB like protein 3) | 2 | -0.23 | 86.5 | 73.8
TULP3 (TUB like protein 3) | 3 | -0.0321 | 81.5 | 79.7
TULP3 (TUB like protein 3) | 4 | 0.0366 | 87.5 | 89.8
NME8 (NME/NM23 family member 8) | 1 | -0.498 | 94.7 | 67
NME8 (NME/NM23 family member 8) | 2 | 0.302 | 55.6 | 68.5
NME8 (NME/NM23 family member 8) | 3 | 0.437 | 35 | 47.4
NME8 (NME/NM23 family member 8) | 4 | -0.00418 | 75.7 | 75.5
ABL2 (ABL proto-oncogene 2, non-receptor tyrosine kinase) | 1 | 0.184 | 71.3 | 80.9
ABL2 (ABL proto-oncogene 2, non-receptor tyrosine kinase) | 2 | -0.0194 | 70.3 | 69.3
ABL2 (ABL proto-oncogene 2, non-receptor tyrosine kinase) | 3 | 0.211 | 65.1 | 75.4
ABL2 (ABL proto-oncogene 2, non-receptor tyrosine kinase) | 4 | 0.0535 | 49.7 | 51.6
FOXG1 (forkhead box G1) | 1 | -0.403 | 104 | 79
FOXG1 (forkhead box G1) | 2 | -0.368 | 70 | 54.2
FOXG1 (forkhead box G1) | 3 | -0.068 | 78.9 | 75.3
FOXG1 (forkhead box G1) | 4 | 0.0525 | 92.8 | 96.3
TPRA1 (transmembrane protein adipocyte associated 1) | 1 | -0.28 | 91.7 | 75.5
TPRA1 (transmembrane protein adipocyte associated 1) | 2 | -0.261 | 8.88 | 7.42
TPRA1 (transmembrane protein adipocyte associated 1) | 3 | -0.0912 | 123 | 116
TPRA1 (transmembrane protein adipocyte associated 1) | 4 | 0.0295 | 94.4 | 96.3
ADAMTS2 (ADAM metallopeptidase with thrombospondin type 1 motif 2) | 1 | 0.482 | 41.2 | 57.5
ADAMTS2 (ADAM metallopeptidase with thrombospondin type 1 motif 2) | 2 | -0.0279 | 42.6 | 41.8
ADAMTS2 (ADAM metallopeptidase with thrombospondin type 1 motif 2) | 3 | 0.108 | 95.9 | 103
ADAMTS2 (ADAM metallopeptidase with thrombospondin type 1 motif 2) | 4 | -0.496 | 58.8 | 41.7
NMT1 (N-myristoyltransferase 1) | 1 | -0.285 | 69.6 | 57.1
NMT1 (N-myristoyltransferase 1) | 2 | 0.0959 | 90.9 | 97.2
NMT1 (N-myristoyltransferase 1) | 3 | -0.0814 | 99.4 | 94
NMT1 (N-myristoyltransferase 1) | 4 | -0.235 | 61.7 | 52.4
PBX1 (PBX homeobox 1) | 1 | 0.16 | 84.2 | 94.1
PBX1 (PBX homeobox 1) | 2 | -0.104 | 103 | 95.7
PBX1 (PBX homeobox 1) | 3 | -0.26 | 63.6 | 53.1
TXLNA (taxilin alpha) | 1 | -0.317 | 39.7 | 31.9
TXLNA (taxilin alpha) | 2 | -0.622 | 64.5 | 41.9
TXLNA (taxilin alpha) | 3 | -0.0938 | 60.7 | 56.9
TXLNA (taxilin alpha) | 4 | -0.271 | 70.2 | 58.2
